Series [1] deals with Rho (transcription termination factor) (Escherichia coli) (UniProt P0AG30). Put plainly: analytical SEC. The note with it: recombinant protein; residues 1-419.
Series [2] addresses Rho K115E (Escherichia coli) (UniProt P0AG30). Description: analytical SEC. The note with it: recombinant protein; residues 1-419.
Series [3] has as its target Rho (transcription termination factor) (Escherichia coli) (UniProt P0AG30). Description: fluorescence anisotropy. The note with it: Anisotropy: 20 mM Na-HEPES pH 7.5, 150 mM KCl, 5% glycerol, 5 mM MgCl2, 0.5 mM TCEP, 5 µM FAM-dC15 or 2 µM FAM-rU12, temperature not stated, recombinant protein, residues 1-419, label: 5'-FAM. (In fluorescence polarisation assays a small probe gives low polarisation when free and higher when bound to something large.)

Series [4] relates to Rho (transcription termination factor) + RNA polymerase + NusA + NusG. Description: analytical SEC. The note with it: recombinant protein, protein details: His6 on beta' (pVS10).

For some of these results: The comparison behind a weaker result is the experiment's own reference, which may not be listed here. For some of these results: Construct, isoform or probe ends are uncertain for at least one entry. For some of these results: At least one verdict rests on a figure or table, not on a statement of the authors.

In the case of “GGGAUAACCCCGCUCUUACACAUUCCAGCCCUGAAAAAGGGCAUCAAAUUAAACCACACCUAUGGUGUAUGUCAAAUUAAACCACA [rut RNA (lambda tR1)]”, the binding result in series [1] is “binds”; in series [2], “binds more weakly”.

Turning to CCCCCCCCCCCCCCC [dC15], the binding result in series [3] (Rof wt (0-100 µM), single-stranded DNA) is reported as “binds more weakly”.

UUUUUUUUUUUU [rU12]: the binding result in series [3] (2 mM ADP-BeF3, 10 µM unlabeled dC15, Rof wt (0-100 µM)) was “binds more weakly”.

As to “GTTATCCGCTCACAATGCCACACGCGCTGCTCGGCCGTTATTCGCAGCCC / GGGCTGCGAATAACGGCCGAGCAGCGTAGCATTACTTGTGAGCGGATAAC / ACACCUGGCGUGUGGC [rut-less RNA / DNA elongation scaffold]”, the binding result is on record as “binds” in series [4] (3-fold excess of Rho hexamer over NusA/NusG-EC, no Rof); “binds more weakly” in series [4] (10-fold excess Rof added to pre-formed complex, Rho dissociates); “binds more weakly” in series [4] (Rho pre-bound by Rof, impaired Rho association with NusA/NusG-EC).

For the origin of these results see paper PMC11018626.
